Test results from PMC5452337.
Results are given in words; binding and its absence hold for the method and conditions named. Binding seen in cells or lysates may run through a third protein. A result given as binding can be weak or reduced; the word gives no strength.

Chains of the proteins cited; added tags and fusions are not shown. Lines headed by an entry give the natural chain unless they say otherwise; changes in a name come on top.
UniProt Q9Z0U4: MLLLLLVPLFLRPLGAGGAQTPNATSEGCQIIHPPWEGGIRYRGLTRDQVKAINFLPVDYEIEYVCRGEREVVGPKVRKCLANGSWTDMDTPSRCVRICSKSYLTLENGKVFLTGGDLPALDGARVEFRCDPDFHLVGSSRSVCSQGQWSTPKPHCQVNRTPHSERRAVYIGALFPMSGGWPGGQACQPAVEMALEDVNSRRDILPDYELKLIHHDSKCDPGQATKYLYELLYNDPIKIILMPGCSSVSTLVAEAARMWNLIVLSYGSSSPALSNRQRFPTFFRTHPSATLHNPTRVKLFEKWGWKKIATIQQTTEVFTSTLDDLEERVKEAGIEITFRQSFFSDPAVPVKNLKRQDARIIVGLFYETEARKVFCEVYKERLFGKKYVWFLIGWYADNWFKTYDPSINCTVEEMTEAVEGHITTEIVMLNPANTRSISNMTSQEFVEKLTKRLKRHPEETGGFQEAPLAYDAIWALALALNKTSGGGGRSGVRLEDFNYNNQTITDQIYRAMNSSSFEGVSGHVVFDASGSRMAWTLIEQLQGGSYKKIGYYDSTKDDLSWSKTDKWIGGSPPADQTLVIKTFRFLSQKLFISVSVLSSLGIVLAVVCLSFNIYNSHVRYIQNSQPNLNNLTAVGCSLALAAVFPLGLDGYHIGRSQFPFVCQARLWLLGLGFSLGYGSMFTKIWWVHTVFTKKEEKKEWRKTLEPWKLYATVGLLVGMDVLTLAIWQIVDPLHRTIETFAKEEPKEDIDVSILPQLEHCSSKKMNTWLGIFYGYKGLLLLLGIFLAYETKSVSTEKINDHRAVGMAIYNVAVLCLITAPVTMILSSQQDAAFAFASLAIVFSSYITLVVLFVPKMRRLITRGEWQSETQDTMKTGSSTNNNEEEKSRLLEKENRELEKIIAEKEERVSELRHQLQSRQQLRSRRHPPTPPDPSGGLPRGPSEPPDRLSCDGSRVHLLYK

Biological target: GABAB receptor subunit 1, splice isoform GABABR1b (rat (endogenous in organotypic hippocampal slices)) (UniProt Q9Z0U4)
Assay: co-IP; lysates of rat organotypic hippocampal slices in CHAPS buffer (50 mM Tris pH 7.5, 150 mM NaCl, 5 mM EDTA, 0.5% CHAPS); precipitation with anti-GABABR1 or anti-KCC2, Protein A/G agarose, immunoblot; IgG controls; also slices treated with SKF97541 (amount of KCC2 in GABABR1 complexes not changed)

B1: potassium-chloride cotransporter KCC2 (protein, UniProt Q63633 1-1139)
chain: MSRRFTVTSLPPAASAASADPESRRHSVADPRRLPREDVKGDGNPKESSPFINSTDTEKGREYDGRNMALFEEEMDTSPMVSSLLSGLANYTNLPQGSKEHEEAENNEGGKKKPVQAPRMGTFMGVYLPCLQNIFGVILFLRLTWVVGIAGIMESFCMVFICCSCTMLTAISMSAIATNGVVPAGGSYYMISRSLGPEFGGAVGLCFYLGTTFAGAMYILGTIEILLAYLFPAMAIFKAEDASGEAAAMLNNMRVYGTCVLTCMATVVFVGVKYVNKFALVFLGCVILSILAIYAGVIKSAFDPPNFPICLLGNRTLSRHGFDVCAKLAWEGNETVTTRLWGLFCSSRLLNATCDEYFTRNNVTEIQGIPGAASGLIKENLWSSYLTKGVIVERRGMPSVGLADGTPVDMDHPYVFSDMTSYFTLLVGIYFPSVTGIMAGSNRSGDLRDAQKSIPTGTILAIATTSAVYISSVVLFGACIEGVVLRDKFGEAVNGNLVVGTLAWPSPWVIVIGSFFSTCGAGLQSLTGAPRLLQAISRDGIVPFLQVFGHGKANGEPTWALLLTACICEIGILIASLDEVAPILSMFFLMCYMFVNLACAVQTLLRTPNWRPRFRYYHWTLSFLGMSLCLALMFICSWYYALVAMLIAGLIYKYIEYRGAEKEWGDGIRGLSLSAARYALLRLEEGPPHTKNWRPQLLVLVRVDQDQNVVHPQLLSLTSQLKAGKGLTIVGSVLEGTFLDNHPQAQRAEESIRRLMEAEKVKGFCQVVISSNLRDGVSHLIQSGGLGGLQHNTVLVGWPRNWRQKEDHQTWRNFIELVRETTAGHLALLVTKNVSMFPGNPERFSEGSIDVWWIVHDGGMLMLLPFLLRHHKVWRKCKMRIFTVAQMDDNSIQMKKDLTTFLYHLRITAEVEVVEMHESDISAYTYEKTLVMEQRSQILKQMHLTKNEREREIQSITDESRGSIRRKNPANTRLRLNVPEETACDNEEKPEEEVQLIHDQSAPSCPSSSPSPGEEPEGEGETDPEKVHLTWTKDKSAAQKNKGPSPVSSEGIKDFFSMKPEWENLNQSNVRRMHTAVRLNEVIVNKSRDAKLVLLNMPGPPRNRNGDENYMEFLEVLTEQLDRVMLVRGGGREVITIYS
- binding: binds
